No constants are given. Whether binding was seen depends on the method and setting. In cells and extracts the contact can be indirect. Some results given as binding are weak or reduced against the parent protein; the word gives no strength. For some assays here: Where a sequence is shown, tags or fusion partners need not be part of it. Values belong to the molecule of their own block, whether it stands above or below them.
Tests used:
Assay in all cases: co-IP
[1] = biological target: FLAG-Rab18 (overexpressed in C2C12 cells) (mouse) (UniProt P35293)
[2] = biological target: T1, FLAG-PLIN2 (overexpressed in C2C12 cells) (mouse) (UniProt P43883)
T1 sequence: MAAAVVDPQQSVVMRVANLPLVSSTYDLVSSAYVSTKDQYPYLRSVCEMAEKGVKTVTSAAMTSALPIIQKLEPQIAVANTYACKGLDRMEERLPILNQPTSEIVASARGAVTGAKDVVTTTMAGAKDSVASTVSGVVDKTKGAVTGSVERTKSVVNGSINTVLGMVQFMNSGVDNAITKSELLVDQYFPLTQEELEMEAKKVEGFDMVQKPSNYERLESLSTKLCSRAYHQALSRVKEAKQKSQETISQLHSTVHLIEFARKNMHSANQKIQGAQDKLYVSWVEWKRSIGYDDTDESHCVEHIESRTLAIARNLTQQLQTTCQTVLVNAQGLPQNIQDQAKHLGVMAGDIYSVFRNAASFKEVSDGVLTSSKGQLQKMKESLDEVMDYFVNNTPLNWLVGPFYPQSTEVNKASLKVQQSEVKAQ

Sequences of proteins named here, by UniProt entry; tags and fusion partners are left off.
UniProt P35293: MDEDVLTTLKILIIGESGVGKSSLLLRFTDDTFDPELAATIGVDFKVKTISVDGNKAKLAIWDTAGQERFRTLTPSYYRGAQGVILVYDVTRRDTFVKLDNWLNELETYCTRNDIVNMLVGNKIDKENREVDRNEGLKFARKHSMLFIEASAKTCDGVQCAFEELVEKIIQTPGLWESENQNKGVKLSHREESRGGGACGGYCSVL
UniProt Q9CZW4: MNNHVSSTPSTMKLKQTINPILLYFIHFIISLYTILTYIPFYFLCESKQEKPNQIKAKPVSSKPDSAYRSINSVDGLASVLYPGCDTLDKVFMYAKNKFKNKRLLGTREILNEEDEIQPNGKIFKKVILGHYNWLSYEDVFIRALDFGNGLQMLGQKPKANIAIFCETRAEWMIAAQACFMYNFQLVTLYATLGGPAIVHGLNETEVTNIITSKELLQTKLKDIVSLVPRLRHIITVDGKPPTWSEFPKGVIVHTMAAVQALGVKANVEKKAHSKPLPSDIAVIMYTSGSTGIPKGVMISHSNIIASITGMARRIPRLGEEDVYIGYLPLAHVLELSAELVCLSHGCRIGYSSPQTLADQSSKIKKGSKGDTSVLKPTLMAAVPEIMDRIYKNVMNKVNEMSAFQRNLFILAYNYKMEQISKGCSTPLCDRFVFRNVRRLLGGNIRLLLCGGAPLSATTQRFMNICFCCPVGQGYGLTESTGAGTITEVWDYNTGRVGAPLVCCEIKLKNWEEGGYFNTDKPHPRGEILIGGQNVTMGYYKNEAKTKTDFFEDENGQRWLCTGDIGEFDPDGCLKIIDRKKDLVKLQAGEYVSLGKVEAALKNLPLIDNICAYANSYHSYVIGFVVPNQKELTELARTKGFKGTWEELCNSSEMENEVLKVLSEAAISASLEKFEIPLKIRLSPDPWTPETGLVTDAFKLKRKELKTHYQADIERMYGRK

[3] = biological target: FLAG-Rab18 (transfected in HEK293A cells) (mouse) (UniProt P35293)

binding [1]: binds
Molecule: acyl-CoA synthetase long-chain family member 3 (ACSL3), endogenous in C2C12 lipid droplets (from UniProt Q9CZW4 1-720) (enzyme)

binding [2]: binds
Molecule: Rab18, endogenous in C2C12 lipid droplets (from UniProt P35293 1-206)

binding [1]: binds
B3: perilipin 2 (PLIN2), endogenous in C2C12 lipid droplets (protein, UniProt P43883 1-425)
chain: T1 sequence

binding [3]: binds
B4: full length GFP-PLIN2 (GFP-PLIN2-FL) (protein, UniProt P43883 1-425)
chain: T1 sequence

Further lines, the molecule ahead of its results:

B1: GFP-PLIN2-251-425 (domain or fragment, UniProt P43883 251-425)
chain: LHSTVHLIEFARKNMHSANQKIQGAQDKLYVSWVEWKRSIGYDDTDESHCVEHIESRTLAIARNLTQQLQTTCQTVLVNAQGLPQNIQDQAKHLGVMAGDIYSVFRNAASFKEVSDGVLTSSKGQLQKMKESLDEVMDYFVNNTPLNWLVGPFYPQSTEVNKASLKVQQSEVKAQ
binding [3]: binds

B2: GFP-PLIN2-1-251 (domain or fragment, UniProt P43883 1-251)
chain: MAAAVVDPQQSVVMRVANLPLVSSTYDLVSSAYVSTKDQYPYLRSVCEMAEKGVKTVTSAAMTSALPIIQKLEPQIAVANTYACKGLDRMEERLPILNQPTSEIVASARGAVTGAKDVVTTTMAGAKDSVASTVSGVVDKTKGAVTGSVERTKSVVNGSINTVLGMVQFMNSGVDNAITKSELLVDQYFPLTQEELEMEAKKVEGFDMVQKPSNYERLESLSTKLCSRAYHQALSRVKEAKQKSQETISQL
binding [3]: no binding

B5: PLIN2-370-425 (domain or fragment, UniProt P43883 370-425)
chain: TSSKGQLQKMKESLDEVMDYFVNNTPLNWLVGPFYPQSTEVNKASLKVQQSEVKAQ
binding [3]: binds

Molecule: PLNWLVGPFYPQSTEVNKASLKVQQSEVKAQ (domain or fragment, UniProt P43883 395-425) [PLIN2-395-425]
binding [3]: binds

— doi:10.1101/2020.05.02.073957
